IntAct's records for PubMed 20802522

B1: Transcriptional activator Myb (Homo sapiens), P10242 (parent)
chain: MARRPRHSIYSSDEDDEDFEMCDHDYDGLLPKSGKRHLGKTRWTREEDEKLKKLVEQNGTDDWKVIANYLPNRTDVQCQHRWQKVLNPELIKGPWTKEEDQRVIELVQKYGPKRWSVIAKHLKGRIGKQCRERWHNHLNPEVKKTSWTEEEDRIIYQAHKRLGNRWAEIAKLLPGRTDNAIKNHWNSTMRRKVEQEGYLQESSKASQPAVATSFQKNSHLMGFAQAPPTAQLPATGQPTVNNDYSYYHISEAQNVSSHVPYPVALHVNIVNVPQPAAAAIQRHYNDEDPEKEKRIKELELLLMSTENELKGQQVLPTQNHTCSYPGWHSTTIADHTRPHGDSAPVSCLGEHHSTPSLPADPGSLPEESASPARCMIVHQGTILDNVKNLLEFAETLQFIDSFLNTSSNHENSDLEMPSLTSTPLIGHKLTVTTPFHRDQTVKTQKENTVFRTPAIKRSILESSPRTPTPFKHALAAQEIKYGPLKMLPQTPSHLVEDLQDVIKQESDESGIVAEFQENGPPLLKKIKQEVESPTDKSGNFFCSHHWEGDSLNTQLFTQTSPVADAPNILTSSVLMAPASEDEDNVLKAFTVPKNRSLASPLQPCSSTWEPASCGKMEEQMTSSSQARKYVNAFSARTLVM

Variants of: B1
Conditions: with sumo2_human SUMO2, P61956

Variant | effect of a mutation on the interaction
V267A;I269A;V270A | decreasing interaction

Variants of: B1
Conditions: with sumo2_human SUMO2, P61956
Remark: another data set of the same source

Variant | effect of a mutation on the interaction
V267I;V270I | increasing interaction
